# Data: PubChem BioAssay AID1347426 (Functional Genomics Laboratory (NCATS/FGL), 2020)
# Screen size: about 31,000 sequences; about 1,400 (4.5%) were called active.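 The calls were made as follows: active = median seed-adjusted z-score above 1 or below -1; inactive = the rest.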 Some of the results follow.
# Test: Novel Modifiers of Survival Motor Neuron (SMN) Protein: Gene Identification via Genome-wide siRNA Screen;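 also: luminescence tracks full-length SMN protein made from the SMN2 reporter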
# Settings: HEK293T SMN2-luciferase reporter, siRNA knockdown, 72 h; actives lie on both sides
# Summary of the method: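 HEK293T cells stably expressing an SMN2 splicing/cDNA-luciferase reporter were reverse-transfected with a druggable-genome siRNA library and read by luminescence at 72 hours; hits defined by MAD score above 1.0 or below -1.0.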
row,Sequence,median seed-adjusted z-score
1,GCAGUACAUGGAACGGCUATT against MTX1,inactive: -0.159
2,ACUCGUUCUUUGUCACAAATT against MYBBP1A,inactive: 0.572
3,GGCUGUACUAUUAAUGACATT against COQ2,inactive: -0.0121
4,CAAGGAGUCAGACAUUUUATT against CDKN1A,inactive: 0.158
5,GGAUCGUCAUAACAGAAUUTT against RPE65,inactive: -0.655
6,GGCUUGAUAUUUGACAGAATT against BBOX1,inactive: 0.152
7,GGAUGACUCGGGACGUGUATT against INSRR,inactive: 0.13
8,GGAAGAGUCAUACAUCAAUTT against DDX55,inactive: 0.507
9,GACUUGUCAGAAGUACAUATT against RNF125,inactive: 0.204
10,CCCGAAAACUUACACCAUATT against FARSB,inactive: 0.317
11,GAAUGUGCCGAGACAACUATT against SORCS3,inactive: -0.151
12,GAUACUAUUUCAUGGAGAATT against DNAJA4,inactive: 0.145
13,AAGACACUUUGGUUCGUGATT against ZNF80,inactive: 0.906
14,GCAAGUACCAAGUGGAGUATT against TMEM11,inactive: -0.00121
15,GCACCUAUGAGGAAAAUGATT against LAMB2,active: 1.12
16,GCAUUCAUUUGAUGAUCGATT against DOCK10,inactive: -0.201
17,CCUUUGACCUGAAGAACAATT against CD4,inactive: -0.566
18,GGCUGAGAACAGUUCUAGATT against ZNF775,inactive: 0.00364
19,GGAUAUGAUGUUUCAGCUUTT against CDK6,inactive: 0
20,GACUUUUACUACACUGAGATT against ZNF704,inactive: -0.15
21,CAUACAAUACCAAAGUGUATT against LOXL2,inactive: 0.177
22,GACUGUUCACGCAAGUUAATT against METAP2,inactive: 0.325

# Looked up above:
# median seed-adjusted z-score, GACUGUUCACGCAAGUUAATT against METAP2 is entered as inactive: 0.325
# median seed-adjusted z-score, GCAAGUACCAAGUGGAGUATT against TMEM11 is entered as inactive: -0.00121
# median seed-adjusted z-score, CCUUUGACCUGAAGAACAATT against CD4 is entered as inactive: -0.566

# Remaining list, next part.

row,Sequence,median seed-adjusted z-score
1,CGAGGUUACACGUUACGAATT against DOCK1,inactive: -0.235
2,GAAGUUCGAGGUGAAGAAGTT against MAFA,inactive: 0.424
3,GAAGCUGUGAGAUAGAGAATT against LCN8,inactive: 0.112
4,CCCUUGUCCUCAAGAUUUUTT against DMRT2,inactive: -0.344
5,GUGCCUUGCUAUUCUAAGATT against NEUROD1,inactive: 0
6,CUGUAGUAACUGCAAGCAATT against FHL1,inactive: 0.574
7,AGAGCUCACUCGUCCCAAUTT against CXCL16,inactive: 0.201
8,CCCACGAGUUUAGUUCAAATT against PIAS2,inactive: -0.096
9,CGAACGAUUUCCCAAGUUATT against NXF1,active: -4.46
10,GCAUGGUUGUGCCUUUAUUTT against MFSD9,inactive: 0.36
11,ACCGUAUUCUUCAUCCUAATT against CCL20,inactive: -0.204
12,CAAUCUACCUAAUCAAGCUTT against ROD1,inactive: 0.42
13,GAACUCAUGUCCGACAUAATT against STX1A,inactive: 0
14,GGAUUAGUGAUUAUAUGGATT against NPAS3,inactive: -0.0316
15,CCAGGAACCUAAGAGCGCATT against DDX11,inactive: 0
16,AGAUAUAAGGCUCAGAAAATT against ADIPOR2,inactive: -0.614
17,CCCUCGUUACUUUGGGUAATT against PDK3,inactive: 0.232
18,CCACUAUGGAGACUGAAAATT against TP53RK,inactive: 0
19,UGGUGAUGAUUGGAAUGUUTT against KCNE2,inactive: -0.666
20,CCAUUACCUUUCUAAGUAUTT against ZADH2,inactive: -0.47
21,GCAGUGUCUCGAGAACUUATT against PDE6D,inactive: 0
22,GGGCACCGAUGAGAUCAAATT against PIAS1,inactive: -0.0367

row,Sequence,median seed-adjusted z-score
1,AGAGUAAGAUAGAAGACCATT against TCF3,inactive: -0.0126
2,GCUACGCAAAAUACAAUAATT against CPA3,inactive: 0.192
3,GCUUAUGCGUAGAUCCUUUTT against SMYD4,inactive: 0.272
4,AGAGCCUGCGGACCACUAUTT against TRIM62,inactive: -0.000231
5,GAUGUACUCCGUUAACAAATT against BIRC8,inactive: 0.0184
6,GGUAAUUUGUUCUUGGUGATT against MTNR1B,inactive: -0.393
7,CCUUCUCAAUGGAUUCCAATT against VN1R1,inactive: 0.531
8,GCACAAUACUGUGACCGUATT against USP24,inactive: 0.101
9,UGCUUGCCGCUACCUGUAATT against SP8,inactive: -0.215
10,GCCUUAUUCUGAUCAUGGATT against BOLL,inactive: -0.072
11,GGAUGCACAUUAUUGAAGATT against SEMA4G,inactive: 0.188
12,GGACAUCACUUGUUGCACUTT against HTR1B,inactive: -0.221
13,GGGUCUUACCGAUGUCUGATT against ERMAP,inactive: -0.276
14,GAAGGGUGCUGAACGAGGATT against DNAJB13,inactive: 0.092
15,GAAUGCCUCAGGAUCUAGATT against FOXO4,inactive: -0.0576
16,CAAGAUCUAUGAUAAGGAUTT against GUCA1B,inactive: 0
17,AGUCAAAGGUGGAAGACGATT against GBX2,inactive: -0.442
18,CUCUUUAUGUGAUCCUGUATT against PLXNB3,inactive: -0.0652
19,CCAAACCACUAUGAACUGATT against TTLL1,inactive: 0.322
20,GUAUAAGUAUAGUGGAAAATT against PLEKHF2,inactive: 0.0967
21,CGCGAUUUGGAGAUCCUUATT against SLIT3,inactive: -0.453
22,AGUACAACAGUGAAUGGAATT against MRGPRX2,inactive: 0.0476

row,Sequence,median seed-adjusted z-score
1,GGACAGGGCGUCUUCCUAATT against NFIC,inactive: 0.72
2,CUUUCUACCAAUUCUCAUATT against ZNF493,inactive: 0.0872
3,CAAGCUCCUUUGACACGCATT against RRN3,inactive: 0.0382
4,AAGUUGCCGUUGUCCCUAATT against TRIM45,inactive: -0.0974
5,CCAAGGUCUUUGUCCUAGATT against CLDN19,inactive: 0
6,GAAUGACUUUUAUUGAGCUTT against PCSK9,inactive: 0.146
7,CAUCUCCAAUGACAAAUUUTT against TFDP1,inactive: 0.0449
8,GCUUGCUACUUUAUCGAGATT against ERCC6L,inactive: -0.0229
9,AGGUAUGUAUUGUCCUCUATT against CKMT1B,inactive: -0.929
10,CCAACGCAGUAAUGGUUUATT against KIF2C,inactive: 0.0122
11,GGAAGUGCCCAGUGACUUATT against SLPI,inactive: 0.274
12,GGGCUACUACUCAACCACATT against TACR1,inactive: -0.391
13,CAUGGAUGAGUUUACCCAATT against APEX2,inactive: -0.347
14,AGACCGAGUUUGGAUCCAATT against DTX1,inactive: -0.0757
15,GAACGUAGAAUGAAAGUAATT against PSMC1,active: -2.23
16,GCUCUAUUGUGCACUCGGATT against POU3F3,inactive: -0.366
17,UGGUUACUCUGAUGCAAGATT against MYH1,inactive: -0.567
18,GCAUUACCGCCAGAAUGGUTT against NUDT14,inactive: 0.479
19,GUAUACCGAUUGAUAACCATT against BTAF1,active: -1.19
20,GCAAUGAAUUAGCCUUGAATT against PKIA,inactive: 0.533
21,GGUGUAAAGUAAUUGUAGATT against PCDHGB7,inactive: -0.0065
22,GGACAUCGAGACUAUAAAATT against PTGFR,inactive: 0

# Part of the list above, as tab-separated lines:
row	Sequence	median seed-adjusted z-score
11	GGAAGUGCCCAGUGACUUATT against SLPI	inactive: 0.274
13	CAUGGAUGAGUUUACCCAATT against APEX2	inactive: -0.347
17	UGGUUACUCUGAUGCAAGATT against MYH1	inactive: -0.567
18	GCAUUACCGCCAGAAUGGUTT against NUDT14	inactive: 0.479
21	GGUGUAAAGUAAUUGUAGATT against PCDHGB7	inactive: -0.0065

# (cont.)

row,Sequence,median seed-adjusted z-score
1,AUAGAUGUAUAGUCAAAAATT against COX8C,inactive: -0.0513
2,GGGUUGGAAUAUCCUAACATT against NDUFS1,inactive: -0.217
3,CCUGGUCCUGGGUAAGUUUTT against ADARB1,inactive: 0.375
4,GGGCAUCGCUAAACCCAAATT against LIF,inactive: 0.273
5,AGAUGGAGUUCAAUUGCGATT against NF2,inactive: -0.543
6,GUGGAUAGCUUGGAAUUCATT against CRX,inactive: -0.156
7,GAGAGUUAGUUAAACGGUATT against RG9MTD1,inactive: -0.375
8,CGAAGGAUAUCUAUCAUCATT against NXF1,active: -4.46
9,GGAAUACUCUGCUAUUGCATT against UBE2Q1,inactive: -0.241
10,UGACCACCGCUACGACAAATT against DDAH1,inactive: 0.138
11,GUACAGGACUUUCCUCUAATT against PTPN2,inactive: 0.302
12,ACAUCAUGAGGAAUGCUAUTT against UCP3,active: 1.23
13,CAAUAUUAGUUGCUGUAUATT against PPAP2A,inactive: 0
14,GCCUGAAUUUGCUAGUGUATT against SLC30A1,inactive: 0.314
15,GGAAAGAAGGUAGUCAGUUTT against ZNF709,inactive: 0.0129
16,CCUGAGAGGUUCCAACUAUTT against ITGAL,inactive: 0.537
17,UCACAGAGCCUAUUAUUUUTT against PRKY,inactive: 0.168
18,CAUCAAAUGUAAACGACGATT against REPS1,inactive: 0.185
19,GCUGGUUAAUAAUCCACUATT against POU6F2,inactive: 0.416
20,CUCAGUUGGUUGAUAUGAATT against FGA,inactive: 0.267
